In assay [1] the target is Coronin 1B-GFP fusion protein (UniProt Q9BR76). The assay is described as follows: affinity purification with mass spectrometry; GFP-Trap beads with lysates of HMECs stably expressing Coro1B-GFP or GFP (control); on-bead digestion, label-free LC-MS/MS, iBAQ; hits: log2 enrichment above 2 and p-value below 0.05 against the GFP control; n = 4.
For assay [2] the target is unchanged. Described as above. This is another data set of the same source.

Amino acid sequences for entries named in this document (tags omitted).
UniProt Q9BR76: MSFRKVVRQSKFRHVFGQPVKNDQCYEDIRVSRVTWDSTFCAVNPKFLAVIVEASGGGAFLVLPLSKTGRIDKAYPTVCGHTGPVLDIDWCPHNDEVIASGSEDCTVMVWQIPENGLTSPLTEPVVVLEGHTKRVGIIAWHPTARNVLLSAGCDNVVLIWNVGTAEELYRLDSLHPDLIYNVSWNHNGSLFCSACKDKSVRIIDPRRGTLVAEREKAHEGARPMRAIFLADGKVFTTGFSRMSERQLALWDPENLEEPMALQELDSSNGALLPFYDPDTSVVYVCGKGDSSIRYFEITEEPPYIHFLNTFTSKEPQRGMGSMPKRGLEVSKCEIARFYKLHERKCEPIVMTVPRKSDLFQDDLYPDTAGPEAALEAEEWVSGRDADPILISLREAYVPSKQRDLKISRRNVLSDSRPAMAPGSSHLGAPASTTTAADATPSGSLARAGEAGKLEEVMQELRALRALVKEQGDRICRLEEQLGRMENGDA
UniProt Q13418: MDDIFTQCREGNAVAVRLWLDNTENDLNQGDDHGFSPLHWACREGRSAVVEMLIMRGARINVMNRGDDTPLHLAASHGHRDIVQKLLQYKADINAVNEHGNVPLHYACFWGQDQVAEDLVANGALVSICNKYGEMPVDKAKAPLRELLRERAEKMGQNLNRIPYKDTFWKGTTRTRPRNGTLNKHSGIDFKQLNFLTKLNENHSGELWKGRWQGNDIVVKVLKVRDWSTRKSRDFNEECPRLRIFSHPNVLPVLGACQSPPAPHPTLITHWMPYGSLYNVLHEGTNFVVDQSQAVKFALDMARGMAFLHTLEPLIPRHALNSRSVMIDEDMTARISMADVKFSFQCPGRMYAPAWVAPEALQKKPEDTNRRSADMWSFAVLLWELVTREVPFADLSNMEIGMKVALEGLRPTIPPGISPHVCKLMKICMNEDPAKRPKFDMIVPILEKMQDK
UniProt P35222: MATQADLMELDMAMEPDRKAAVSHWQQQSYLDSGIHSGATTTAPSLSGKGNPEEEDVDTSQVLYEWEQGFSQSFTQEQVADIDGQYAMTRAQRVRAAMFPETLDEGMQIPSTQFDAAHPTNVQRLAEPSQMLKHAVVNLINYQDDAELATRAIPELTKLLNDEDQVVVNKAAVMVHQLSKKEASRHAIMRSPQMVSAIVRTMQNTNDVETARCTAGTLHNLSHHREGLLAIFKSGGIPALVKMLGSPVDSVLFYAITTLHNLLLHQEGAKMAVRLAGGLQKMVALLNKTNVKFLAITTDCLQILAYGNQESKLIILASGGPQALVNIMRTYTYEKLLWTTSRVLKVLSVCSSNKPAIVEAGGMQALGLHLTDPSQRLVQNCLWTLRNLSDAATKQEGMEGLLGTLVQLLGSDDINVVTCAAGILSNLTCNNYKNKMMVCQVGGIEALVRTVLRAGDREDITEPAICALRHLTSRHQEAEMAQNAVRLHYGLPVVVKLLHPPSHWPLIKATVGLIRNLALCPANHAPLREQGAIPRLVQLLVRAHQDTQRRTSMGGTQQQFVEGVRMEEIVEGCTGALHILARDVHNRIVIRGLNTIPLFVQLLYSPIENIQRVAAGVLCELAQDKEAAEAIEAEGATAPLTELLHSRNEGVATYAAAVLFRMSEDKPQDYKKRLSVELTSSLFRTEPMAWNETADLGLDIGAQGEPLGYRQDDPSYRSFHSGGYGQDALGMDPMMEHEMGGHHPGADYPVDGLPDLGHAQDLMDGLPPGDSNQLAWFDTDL

The values that follow come from PMC7411154.

Where two headings read alike, the source gives them in different places. No constants are given. Whether binding was seen depends on the method and setting. Binding seen in cells or lysates may run through a third protein. A yes stands for co-enrichment or nearness to the bait. Other partners may have been found. No binding means not detected with the bait.

For “integrin-linked kinase (ILK) (from UniProt Q13418 1-452)”, the binding result in assay [1] is “binds”.

For the molecule β-catenin (from UniProt P35222 1-781), the binding entry in assay [1] is given as “no binding”.

B1: VE-cadherin (VEcad) (protein, UniProt P33151 48-784)
chain: DWIWNQMHIDEEKNTSLPHHVGKIKSSVSRKNAKYLLKGEYVGKVFRVDAETGDVFAIERLDRENISEYHLTAVIVDKDTGENLETPSSFTIKVHDVNDNWPVFTHRLFNASVPESSAVGTSVISVTAVDADDPTVGDHASVMYQILKGKEYFAIDNSGRIITITKSLDREKQARYEIVVEARDAQGLRGDSGTATVLVTLQDINDNFPFFTQTKYTFVVPEDTRVGTSVGSLFVEDPDEPQNRMTKYSILRGDYQDAFTIETNPAHNEGIIKPMKPLDYEYIQQYSFIVEATDPTIDLRYMSPPAGNRAQVIINITDVDEPPIFQQPFYHFQLKENQKKPLIGTVLAMDPDAARHSIGYSIRRTSDKGQFFRVTKKGDIYNEKELDREVYPWYNLTVEAKELDSTGTPTGKESIVQVHIEVLDENDNAPEFAKPYQPKVCENAVHGQLVLQISAIDKDITPRNVKFKFILNTENNFTLTDNHDNTANITVKYGQFDREHTKVHFLPVVISDNGMPSRTGTSTLTVAVCKCNEQGEFTFCEDMAAQVGVSIQAVVAILLCILTITVITLLIFLRRRLRKQARAHGKSVPEIHEQLVTYDEEGGGEMDTTSYDVSVLNSVRRGGAKPPRPALDARPSLYAQVQKPPRHAPGAHGGPGEMAAMIEVKKDEADHDGDGPPYDTLHIYGYEGSESIAESLSSLGTDSSDSDVDYDFLNDWGPRFKMLAELYGSDPREELLY
For B1, the binding entry in assay [2] is “no binding”.
